Measurements reported in the supplement of paper PMC10849652.
Some of the results follow.

Chains of the proteins cited; added tags and fusions are not shown. Lines headed by an entry give the natural chain unless they say otherwise; changes in a name come on top.
UniProt P49959: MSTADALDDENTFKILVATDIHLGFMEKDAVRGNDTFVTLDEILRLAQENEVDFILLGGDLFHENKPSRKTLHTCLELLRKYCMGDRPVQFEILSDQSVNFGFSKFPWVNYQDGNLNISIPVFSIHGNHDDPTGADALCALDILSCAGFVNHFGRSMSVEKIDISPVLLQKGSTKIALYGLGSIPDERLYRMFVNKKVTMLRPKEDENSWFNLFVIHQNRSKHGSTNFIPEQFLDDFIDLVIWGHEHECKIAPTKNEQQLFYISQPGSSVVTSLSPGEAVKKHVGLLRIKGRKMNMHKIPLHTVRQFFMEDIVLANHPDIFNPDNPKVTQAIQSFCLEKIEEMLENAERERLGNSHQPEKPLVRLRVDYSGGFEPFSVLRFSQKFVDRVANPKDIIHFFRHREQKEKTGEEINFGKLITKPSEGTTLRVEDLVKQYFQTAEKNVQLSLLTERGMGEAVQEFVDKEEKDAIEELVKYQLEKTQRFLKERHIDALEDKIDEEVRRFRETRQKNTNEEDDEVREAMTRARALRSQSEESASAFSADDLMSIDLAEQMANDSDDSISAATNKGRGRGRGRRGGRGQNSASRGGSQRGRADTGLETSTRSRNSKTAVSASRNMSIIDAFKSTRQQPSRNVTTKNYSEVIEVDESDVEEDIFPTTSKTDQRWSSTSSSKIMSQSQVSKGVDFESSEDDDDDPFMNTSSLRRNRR
UniProt Q9BV20: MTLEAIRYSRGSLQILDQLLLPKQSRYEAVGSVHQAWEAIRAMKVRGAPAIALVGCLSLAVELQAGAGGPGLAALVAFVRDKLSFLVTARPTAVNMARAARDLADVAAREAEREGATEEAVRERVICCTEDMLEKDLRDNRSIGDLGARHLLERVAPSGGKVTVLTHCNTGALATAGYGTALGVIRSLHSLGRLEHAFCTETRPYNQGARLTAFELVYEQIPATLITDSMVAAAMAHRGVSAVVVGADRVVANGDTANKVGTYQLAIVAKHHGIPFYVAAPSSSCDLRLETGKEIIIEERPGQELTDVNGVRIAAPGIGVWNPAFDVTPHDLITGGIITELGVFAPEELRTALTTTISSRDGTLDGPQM
UniProt Q9BWT6: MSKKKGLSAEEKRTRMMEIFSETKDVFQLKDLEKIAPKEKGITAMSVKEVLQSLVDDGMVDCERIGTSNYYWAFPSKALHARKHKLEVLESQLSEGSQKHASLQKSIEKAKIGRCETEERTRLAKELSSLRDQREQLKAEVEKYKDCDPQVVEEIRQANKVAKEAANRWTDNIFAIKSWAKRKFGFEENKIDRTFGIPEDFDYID

Experiments:
Assay in all cases: log2 fold change, soluble protein after heating vs DMSO (PISA); higher = thermal stabilisation; K562 cells, 10 uM, 30 min; active = over 0.2 and 3.5 SD of the protein, either way, in both replicates (recomputed)
[1] = compound: C1=CC=C(C=C1)[C@H](COC2=CC3=C(C=C2)NC(=O)N3)NC(=O)C4=CC=CN(C4=O)CC5=CC(=C(C=C5)F)F
Procedure, shortened: (§1)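 Values are thermal stability changes relative to control samples and are taken from duplicates. They are stated as log2 fold changes. Before quantification by TMTpro 16plex LC-MS/MS with equalised channel sums, K562 cells at 2×10^6 cells/mL were treated with 10 μM compound for 30 min, heated in aliquots for 3 min across 48°C-58°C, pooled, extracted in PBS with 0.5% NP-40 at 4°C, and centrifuged at 21,000xg for 90 min to give the soluble supernatant.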

[2] = compound: CC1=C(SC2=C1C(=N[C@H](C3=NN=C(N32)C)CC(=O)N)C4=CC=C(C=C4)Cl)C
Procedure, shortened: as §1

[3] = compound: CC1=C2C(=CC=C1)N=C(N(C2=O)C3=CC=CC=C3C)CN4C=NC5=C(N=CN=C54)N
Procedure, shortened: as §1

[4] = compound: Cc1sc2c(c1C)C(c1ccc(Cl)cc1)=N[C@@H](CC(=O)OC(C)(C)C)c1nnc(C)n1-2
Procedure, shortened: as §1

[5] = compound: c1ccc([C@@H]2C[C@H]2NC2CCNCC2)cc1
Procedure, shortened: as §1

Measured: log2 fold change

MRE11 isoform 3 (UniProt P49959)
inactive: [1] 0.012 | [2] -0.035 | [3] 0.004 | [4] 0.025 | [5] 0.046

MRI1 (UniProt Q9BV20)
inactive: [1] -0.017 | [2] 0.048 | [3] 0.119 | [4] -0.011 | [5] -0.006

MRPL30 isoform 2 (UniProt Q8TCC3)
inactive: [1] 0.046 | [2] -0.124 | [3] -0.123 | [4] 0.109 | [5] -0.04

MRPL3 (UniProt P09001)
inactive: [1] 0.056 | [2] -0.107 | [3] -0.056 | [4] 0.037 | [5] -0.055

MND1 (UniProt Q9BWT6)
inactive: [1] 0.009 | [2] 0.012 | [3] 0.081 | [4] 0.088 | [5] 0.102
